Test results reported in article PMC10584876.

T1: Cofilin-GFP (Drosophila) (UniProt P45594)
T1 sequence: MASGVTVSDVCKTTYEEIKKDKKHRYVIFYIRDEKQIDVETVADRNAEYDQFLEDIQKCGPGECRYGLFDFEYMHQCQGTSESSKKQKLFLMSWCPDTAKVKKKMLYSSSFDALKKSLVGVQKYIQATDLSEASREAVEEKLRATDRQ


Columns and labels:
Cofilin-GFP (Drosophila) = target: T1, Cofilin-GFP (Drosophila); experiment: co-IP; da-GAL4 > UAS-Cofilin-GFP adult head extracts, anti-GFP antibody, Protein A/G Agarose, western blot
DNlg2-HA (Drosophila) = experiment: co-IP; da-GAL4 > UAS-DNlg2-HA adult head extracts, anti-HA antibody, Protein A/G Agarose, western blot

Row | binding (Cofilin-GFP (Drosophila)) | binding (DNlg2-HA (Drosophila)) | Molecule
1 | binds |  | DNlg2 (Drosophila (endogenous in adult heads))
2 |  | binds | Cofilin (protein, UniProt P45594 1-148) MASGVTVSDVCKTTYEEIKKDKKHRYVIFYIRDEKQIDVETVADRNAEYDQFLEDIQKCGPGECRYGLFDFEYMHQCQGTSESSKKQKLFLMSWCPDTAKVKKKMLYSSSFDALKKSLVGVQKYIQATDLSEASREAVEEKLRATDRQ

No constants are given. Whether binding was seen depends on the method and setting. Binding seen in cells or lysates may run through a third protein. A result given as binding can be weak or reduced; the word gives no strength. For some assays here: Tags and fused reporters may be left off the sequences shown.
